Assays:
mice = conditions: oral route; cited from earlier work
EOC-20 cells = conditions: Table III; MTT viability; by extrapolation through sublethal concentrations
Experimental: Lower IC50 values indicate improved efficacy. FIG. 2 illustrates the principle of the measurement using NDGA as an example test agent. In order to determine viability, cell culture medium was replaced with phenol-free DMEM (Gibco) containing 20 μL/mL of MTT viability reagent (Promega). […] Control cells were taken to indicate 100% viability and intermediate values of MTT reduction were scaled to percentage of control. For each compound, an LD50 value was determined by extrapolation through sublethal concentrations. This value represents the concentration that reduced the MTT viability parameter by 50%.

Nc1nc2ccc(OC(F)(F)F)cc2s1 [Riluzole]
LD50 (mice): 94 mg/kg
LD50 (EOC-20 cells): nontoxic
